No constants are given. Whether binding was seen depends on the method and setting.
Molecular target: Keyhole Limpet Hemocyanin
Assay: ELISA; laydown conjugate of thiolated S1P with carrier and crosslinker exchanged (BSA/KLH, SMCC/IOA)

binding: no binding
B1: murine anti-S1P monoclonal antibody Sphingomab (hybridoma clone 306D326.26, ATCC SD-5362) (antibody, mouse IgG1, V domains shown)
VH: QAHLQQSDAELVKPGASVKISCKVSGFIFIDHTIHWMKQRPEQGLEWIGCISPRHDITKYNEMFRGKATLTADKSSTTAYIQVNSLTFEDSAVYFCARGGFYGSTIWFDFWGQGTTLTVS
VL: ETTVTQSPASLSMAIGEKVTIRCITTTDIDDDMNWFQQKPGEPPNLLISEGNILRPGVPSRFSSSGYGTDFLFTIENMLSEDVADYYCLQSDNLPFTFGSGTKLEIK

— patent publication US20080090303A1
